# Source: article doi:10.1101/2022.01.16.476540 (bioRxiv, 2022)
# By UniProt entry, the sequences of proteins in these tests, tags left out. Where a name states a change or a piece, a line headed by the entry shows the natural chain unless it says otherwise. Chains listed by the source or under a name are the forms on record and can include a tag or linker.
# UniProt P32867: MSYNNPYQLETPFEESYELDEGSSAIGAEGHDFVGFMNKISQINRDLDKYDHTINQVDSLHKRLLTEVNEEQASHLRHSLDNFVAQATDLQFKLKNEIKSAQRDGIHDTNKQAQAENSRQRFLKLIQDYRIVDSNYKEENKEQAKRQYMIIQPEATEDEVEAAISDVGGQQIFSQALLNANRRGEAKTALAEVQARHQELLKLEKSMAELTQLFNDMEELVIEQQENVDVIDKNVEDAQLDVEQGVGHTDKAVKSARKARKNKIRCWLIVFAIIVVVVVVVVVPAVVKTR
# Cy3-labeled Sec9 (A442C) (P40357, form named): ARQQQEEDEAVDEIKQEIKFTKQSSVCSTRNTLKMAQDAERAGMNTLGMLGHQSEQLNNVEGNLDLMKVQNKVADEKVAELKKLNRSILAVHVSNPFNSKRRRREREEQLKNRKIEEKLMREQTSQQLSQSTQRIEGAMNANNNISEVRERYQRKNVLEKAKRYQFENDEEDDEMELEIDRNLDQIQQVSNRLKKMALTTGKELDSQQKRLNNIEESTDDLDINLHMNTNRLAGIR
# These are yes or no findings as the source states them, for the method shown.
# Molecular target: Full length Sso1 WT (a.a. 1-290) (yeast (S. cerevisiae)) (UniProt P32867)
# Experiment: single-molecule pull-down
substance,measurement,value
Cy3-labeled Sec9 (A442C) (from UniProt P40357 416-651) (domain or fragment),binding,no binding (condition: without exocyst)
